PubChem BioAssay AID1259308 | NCATS – 2017
This is one part, drawn at random, of about 59,000 reagents tested. About 1,510 of them (2.6%) were called active. 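Calls use total luciferase alone and ignore viability, so some active siRNAs may act by altering cell number.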 A number with no mark means an inactive call. Reagents against one gene are numbered here. Not all columns of the deposit are shown. No sequences are given here.

Purpose: 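Knock-downs that increase output of a recombinant reporter protein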 (primary screen)
Cell system: human HEK293 embryonic kidney cells stably expressing firefly luciferase (HEK-CMV-Luc2-Hygro)
Knock-down reagent: single siRNA against human genes, 0.8 pmol siRNA per well
Timing: 72 h
Measurement: 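Reporter luminescence and viable-cell signal on separate replicate plates, given as percent of non-targeting control and median/MAD z-scores, plus per-cell luciferase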
Direction: total luciferase, z-score and total luciferase, % of control: higher = more reporter protein produced
Call rule: 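Active when the median/MAD z-score for overall luciferase is greater than 3; a gene was taken forward for validation with new siRNAs if at least two of its three siRNAs passed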
Meaning of the calls: active = raised luciferase; inactive = no rise

Depletion of SCRN2 (secernin 2) #1 resulted in: total luciferase, z-score 0.387; total luciferase, % of control 89.6. For SCRN2 (secernin 2) #2 the deposit lists total luciferase, z-score -0.952; total luciferase, % of control 62.9. With knock-down of SCRN2 (secernin 2) #3, the screen gave total luciferase, z-score -0.854; total luciferase, % of control 64.9. RASGRF2 (Ras protein specific guanine nucleotide releasing factor 2) #1 scored total luciferase, z-score -0.228; total luciferase, % of control 77.3. RASGRF2 (Ras protein specific guanine nucleotide releasing factor 2) #2 gave total luciferase, z-score 0.489; total luciferase, % of control 91.6. Knock-down of RASGRF2 (Ras protein specific guanine nucleotide releasing factor 2) #3 came out at: total luciferase, z-score -1.68; total luciferase, % of control 48.4.

GPR152 (G protein-coupled receptor 152) #1 scored total luciferase, z-score -0.669; total luciferase, % of control 68.6. GPR152 (G protein-coupled receptor 152) #2 gave total luciferase, z-score 2.45; total luciferase, % of control 131. Silencing of GPR152 (G protein-coupled receptor 152) #3 resulted in: total luciferase, z-score -1.53; total luciferase, % of control 51.6. With knock-down of AFG1L (AFG1 like ATPase) #1, the screen gave total luciferase, z-score -0.641; total luciferase, % of control 69.1. Depletion of AFG1L (AFG1 like ATPase) #2 resulted in: total luciferase, z-score 1.93; total luciferase, % of control 120. For AFG1L (AFG1 like ATPase) #3, the values are total luciferase, z-score 1.84; total luciferase, % of control 119.

With knock-down of MMEL1 (membrane metalloendopeptidase like 1) #1 the results were total luciferase, z-score 0.0192; total luciferase, % of control 82.3. MMEL1 (membrane metalloendopeptidase like 1) #2 showed total luciferase, z-score -0.381; total luciferase, % of control 74.3. MMEL1 (membrane metalloendopeptidase like 1) #3 showed total luciferase, z-score -0.167; total luciferase, % of control 78.6. Against ARFRP1 (ARF related protein 1) #1 the deposit lists total luciferase, z-score 0.293; total luciferase, % of control 87.7. After knock-down of ARFRP1 (ARF related protein 1) #2, the record shows total luciferase, z-score 0.446; total luciferase, % of control 90.8. Silencing of ARFRP1 (ARF related protein 1) #3 came out at: total luciferase, z-score -1.32; total luciferase, % of control 55.7.

With knock-down of RXFP3 (relaxin family peptide receptor 3) #1, the screen gave total luciferase, z-score 1.05; total luciferase, % of control 103. For RXFP3 (relaxin family peptide receptor 3) #2 the deposit lists total luciferase, z-score 3.9 (active); total luciferase, % of control 159. After knock-down of RXFP3 (relaxin family peptide receptor 3) #3, the screen gave total luciferase, z-score -0.629; total luciferase, % of control 69.4. Against RPRD1A (regulation of nuclear pre-mRNA domain containing 1A) #1, the values are total luciferase, z-score -0.69; total luciferase, % of control 68.2. Knock-down of RPRD1A (regulation of nuclear pre-mRNA domain containing 1A) #2 came out at: total luciferase, z-score -0.831; total luciferase, % of control 65.4. Against RPRD1A (regulation of nuclear pre-mRNA domain containing 1A) #3, the entry reads total luciferase, z-score -1.68; total luciferase, % of control 48.4.

Depletion of OR8B8 (olfactory receptor family 8 subfamily B member 8) #1 resulted in: total luciferase, z-score 1.7; total luciferase, % of control 116. OR8B8 (olfactory receptor family 8 subfamily B member 8) #2 gave total luciferase, z-score -0.146; total luciferase, % of control 79. Against OR8B8 (olfactory receptor family 8 subfamily B member 8) #3, the values are total luciferase, z-score -0.346; total luciferase, % of control 75. For TMEM67 (transmembrane protein 67) #1 the deposit lists total luciferase, z-score -0.191; total luciferase, % of control 78.1. With knock-down of TMEM67 (transmembrane protein 67) #2, the screen gave total luciferase, z-score -0.756; total luciferase, % of control 66.9. After knock-down of TMEM67 (transmembrane protein 67) #3, the record shows total luciferase, z-score -0.965; total luciferase, % of control 62.7.

For PRXL2CP1 (PRXL2C pseudogene 1) #1, the entry reads total luciferase, z-score -0.13; total luciferase, % of control 79.3. PRXL2CP1 (PRXL2C pseudogene 1) #2 scored total luciferase, z-score -0.802; total luciferase, % of control 65.9. With knock-down of PRXL2CP1 (PRXL2C pseudogene 1) #3 the results were total luciferase, z-score -0.792; total luciferase, % of control 66.1.

5 neighbouring records already listed, for reference:
RASGRF2 (Ras protein specific guanine nucleotide releasing factor 2) #2 → total luciferase, z-score: 0.489; total luciferase, % of control: 91.6
RASGRF2 (Ras protein specific guanine nucleotide releasing factor 2) #3 → total luciferase, z-score: -1.68; total luciferase, % of control: 48.4
GPR152 (G protein-coupled receptor 152) #1 → total luciferase, z-score: -0.669; total luciferase, % of control: 68.6
GPR152 (G protein-coupled receptor 152) #2 → total luciferase, z-score: 2.45; total luciferase, % of control: 131
GPR152 (G protein-coupled receptor 152) #3 → total luciferase, z-score: -1.53; total luciferase, % of control: 51.6
